{"source": "paper PMC12137002", "molecular_target": "T1, TurboID-ALN (UniProt Q99M08)", "T1 sequence": "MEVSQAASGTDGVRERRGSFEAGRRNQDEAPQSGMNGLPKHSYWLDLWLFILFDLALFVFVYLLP", "test": "proximity labelling; TurboID on the N terminus of ALN in differentiated beige adipocytes, 50 μM biotin for 30 min, streptavidin beads, TMT-based quantitative proteomics; basal and NE-treated cells", "note": "These are yes or no findings as the source states them, for the method shown. In cells and extracts the contact can be indirect. These calls come from enrichment with a bait or labelling near it, and not all partners need be listed."}
{"substance": "SERCA2b (from UniProt O55143-1 1-1044) (enzyme)", "values": [{"measurement": "binding", "result": "binds"}]}
